Test results: PubChem BioAssay AID1671190 (National Center for Advancing Translational Sciences (NCATS), 2021)
About 6,100 (1.1%) of roughly 580,000 compounds were called active. Inconclusive results, whose numbers are uncertain, are shown with a selection of clear calls. The call rests on the fitted dose curve; in most records, active means well fitted inhibition curve with a large enough effect; inconclusive means small, poorly fitted or top-dose-only effect, or another doubt; inactive means no such curve, though single readings can be large or run the other way. Where the call is inconclusive, the potency comes from a doubtful curve fit.
On the % scale 0 is the no-effect control and ±100 the full control effect; potency means the concentration at half of the fitted maximal effect.

Sequences of proteins named here, by UniProt entry; tags and fusion partners are left off.
UniProt P18054, whole entry, looked up: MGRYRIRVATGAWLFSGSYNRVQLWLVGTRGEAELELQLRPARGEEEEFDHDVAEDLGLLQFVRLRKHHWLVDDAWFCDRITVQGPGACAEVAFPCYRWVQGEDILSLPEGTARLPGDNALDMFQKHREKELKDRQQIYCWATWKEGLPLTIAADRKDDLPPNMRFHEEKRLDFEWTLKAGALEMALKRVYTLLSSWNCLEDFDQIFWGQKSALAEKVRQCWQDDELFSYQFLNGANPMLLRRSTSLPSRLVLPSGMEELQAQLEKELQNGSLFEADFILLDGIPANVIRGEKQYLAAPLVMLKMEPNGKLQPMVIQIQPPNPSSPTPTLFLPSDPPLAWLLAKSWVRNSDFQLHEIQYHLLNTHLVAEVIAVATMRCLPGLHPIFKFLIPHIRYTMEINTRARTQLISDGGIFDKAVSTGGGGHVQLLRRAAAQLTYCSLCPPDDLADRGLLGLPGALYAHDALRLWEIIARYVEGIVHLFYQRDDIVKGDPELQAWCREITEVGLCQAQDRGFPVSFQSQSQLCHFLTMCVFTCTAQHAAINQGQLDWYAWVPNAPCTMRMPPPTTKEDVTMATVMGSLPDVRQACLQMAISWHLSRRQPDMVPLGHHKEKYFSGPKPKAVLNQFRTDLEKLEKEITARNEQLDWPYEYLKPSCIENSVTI

Each molecule was assayed against Polyunsaturated fatty acid lipoxygenase ALOX12 (Homo sapiens) (UniProt P18054) (assay: Primary qHTS assay for inhibitors of human arachidonate 12S-lipoxygenase (ALOX12): Round 2). Settings: purified 12hLO, xylenol orange hydroperoxide absorbance; activity change, negative = inhibition: at 108 µM (top of the series) unless noted.
Procedure, shortened: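 Hydroperoxide product was detected by ferrous iron/xylenol orange as the 573 to 405 nm absorbance ratio. Arachidonic acid at 40 uM (final) was turned over for 30 min at room temperature by 150 nM human 12hLO, pH 7.0 Hepes buffer, after 15 min compound preincubation.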
With Cc1noc([C@H]2CCN(S(=O)(=O)c3ccc4c(c3)CCC4)C[C@H]2NC(=O)C2CC2)n1 the Potency was “inactive”. CNc1c(NC(=O)NCCCOC)c(=O)oc2ccccc12 was tested, and the Potency was “inactive”. For COc1cc(C2=NOC(C(=O)N3CCN(c4ccccc4)CC3)C2)cc(OC)c1OC (stereo unspecified), the Potency was “inactive”. In the case of NNc1nc2cc3c(cc2s1)OCCO3, the Potency is reported as inconclusive: 14.1 µM [inhibitor, full curve, poor fit]. For Cc1cc2nc(C)n(CCCNC(=O)Nc3cccc4ccccc34)c2cc1C, the Potency was “inactive”. With Cc1ccc(NC(=O)CCC2CCN(S(=O)(=O)c3ccccc3C)CC2)cc1F the Potency was inconclusive: 11.2 µM [inhibitor, full curve]. With CCCCOc1ccc(C2C3CN(C(=O)OCC)CC=C3C(C#N)=C(N)C2(C#N)C#N)cc1OC (stereo unspecified) the Potency was inconclusive: 63.1 µM [inhibitor, partial curve, poor fit]. CC(C)C[C@H]1CN([C@@H](Cc2ccc(O)cc2)CN2CCC[C@@H]2CN2C(=S)NC[C@@H]2Cc2ccccc2)C(=S)N1CC1CCCCC1 was tested, and the Potency was inconclusive: 8.91 µM [inhibitor, full curve, poor fit]. With Cc1ccc(OCC(=O)N/N=C/C=C/c2ccco2)cc1C the Potency was active: 39.8 µM. With O=C(COc1cccc(F)c1)c1ccc2c(c1)N(CC(=O)N1CCOCC1)C(=O)CO2 the Potency was “inactive”. In the case of Cc1nn(CC(C)C)c2sc(C(=O)N3CCN(S(=O)(=O)c4ccc(F)c(Cl)c4)CC3)cc12, the Potency is reported as inconclusive: 89.1 µM [inhibitor, partial curve, poor fit]. In the case of O=C(NCc1ccc(Cl)cc1)c1cc2n(n1)CC(c1ccc(Cl)cc1)OC2 (stereo unspecified), the Potency is reported as inconclusive: 5.01 µM [inhibitor, full curve, poor fit]. Cc1nc(CN2CC3(CCN(C)C3)c3cc(C(=O)NCc4ccccc4)ccc32)cs1 (stereo unspecified) was tested, and the Potency was inconclusive: 100 µM [inhibitor, partial curve]. In the case of COC(=O)[C@]12CCCCC=C1N(Cc1ccc3c(c1)OCO3)C(=O)[C@H](CC(=O)NCc1ccc(C)o1)C2, the Potency is reported as inconclusive: 0.282 µM [inhibitor, full curve, poor fit]. With Cc1cc(OC(C)(C)c2n[nH]c(=S)n2CC(C)C)ccc1Cl the Potency was inconclusive: 5.62 µM [inhibitor, full curve, poor fit]. In the case of Cc1ccc(CN[C@@H]2CO[C@H](CNC(=O)NC(C)C)[C@H]2O)cc1, the Potency is reported as inconclusive: 126 µM [inhibitor, single point]. For Cc1cccc2sc(N(CCN(C)C)C(=O)c3cc(Cl)sc3Cl)nc12, the Potency was inconclusive: 39.8 µM [inhibitor, partial curve, poor fit]. CCOc1ccccc1NC(=S)NCCc1ccccc1 was tested, and the Potency was inconclusive: 50.1 µM [inhibitor, partial curve, poor fit]. O=C(CSc1ccccn1)c1ccc(Cl)cc1 was tested, and the Potency was inconclusive: 35.5 µM [inhibitor, partial curve, poor fit]. c1coc(C2=Nc3cccc4cccc(c34)N2)c1 was tested, and the Potency was inconclusive: 50.1 µM [inhibitor, partial curve, poor fit]. With Cc1noc(C)c1-c1cncnc1NC1CC1 the Potency was inconclusive: 10 µM [inhibitor, full curve, poor fit]. With Cn1c(N)c(C(=O)COC(=O)c2cc(-c3ccco3)nc3ccccc23)c(=O)n(C)c1=O the Potency was inconclusive: 4.47 µM [inhibitor, full curve, poor fit]. COCCNCCCOc1ccc(C(C)(C)c2ccccc2)cc1 was tested, and the Potency was inconclusive: 0.282 µM [inhibitor, full curve, poor fit]. In the case of COc1ccccc1Nc1nc(NCc2ccco2)c2ccccc2n1, the Potency is reported as inconclusive: 31.6 µM [inhibitor, full curve, poor fit]. With CCOC(=O)C(Cc1ccc(O)cc1)NC(=O)CNC(=O)C1CCCN1C(=O)OC(C)(C)C (stereo unspecified) the Potency was “inactive”. With CCc1cc(=O)oc2cc(C)cc(OC(C)C(=O)NCCCN3CCOCC3)c12 (stereo unspecified) the Potency was inconclusive: 31.6 µM [inhibitor, partial curve, poor fit]. In the case of CCOc1cc(N2CCOCC2)c(OCC)cc1NC(C)C(=O)N1CCC(C)CC1 (stereo unspecified), the Potency is reported as active: 35.5 µM. For O=C(Cc1ccc(NC(=O)C2CCN(C(=O)C3CCCC3)CC2)cc1)Nc1cccc(C(=O)N2CCCCC2)c1, the Potency was inconclusive: 31.6 µM [inhibitor, single point]. For COc1ccc(C2/C(=C(/O)c3ccc(F)cc3)C(=O)C(=O)N2c2ccccn2)cc1OC (stereo unspecified), the Potency was inconclusive: 28.2 µM [inhibitor, partial curve, poor fit]. For CCN(Cc1ccc(S(=O)(=O)N(C)C)o1)c1ccccc1, the Potency was inconclusive: 70.8 µM [inhibitor, partial curve, poor fit]. For O=C(NCCc1cccc(C(F)(F)F)c1)C1CCC(=O)N(C2CC2)C1 (stereo unspecified), the Potency was inconclusive: 112 µM [inhibitor, partial curve, poor fit]. In the case of CC(C)(C)OC(=O)C[C@@H]1C/C=C\C[C@H](CC(=O)N[C@H](CO)Cc2ccccc2)C(=O)N[C@@H](Cc2ccccc2)COC1=O, the Potency is reported as “inactive”. With COc1ccc(Cc2c(-c3ccc(F)cc3)nc3c(C)cc(Br)cn23)c(C)c1 the Potency was active: 35.5 µM. For CCCCCCCNC(=O)CC#N, the Potency was “inactive”. With CC(=O)c1cn(CC(=O)NC2CCCCCC2)c2ccccc12 the Potency was “inactive”. For CC1CC(C)CN(C2CCN(Cc3cccnc3)CC2)C1 (stereo unspecified), the Potency was inconclusive: 0.251 µM [inhibitor, full curve, poor fit]. In the case of Oc1ccccc1C1=NN(c2ccccc2)C(c2ccccc2)C1 (stereo unspecified), the Potency is reported as active: 15.8 µM. For Cc1noc(C)c1CSCC(=O)N(C)CC(=O)Nc1ccc(Cl)c(Cl)c1, the Potency was inconclusive: 56.2 µM [inhibitor, partial curve, poor fit]. With Cn1c(COc2ccc(Cl)cc2)nnc1SCC(O)COc1ccc(C(C)(C)C)cc1 (stereo unspecified) the Potency was “inactive”. COc1ccccc1N1CCN(C(=O)c2noc3c2CCc2sccc2-3)CC1 was tested, and the Potency was inconclusive: 44.7 µM [inhibitor, partial curve, poor fit]. For S=C1NCCc2ccc(Cl)cc2C1c1ccccc1Cl (stereo unspecified), the Potency was active: 31.6 µM. O=C(O)C1CC(=O)N(CCc2ccccc2)C1 (stereo unspecified) was tested, and the Potency was inconclusive: 56.2 µM [inhibitor, partial curve, poor fit]. For Cc1c(C(=O)N(Cc2nc3ccccc3c(=O)[nH]2)C(C)C)oc2ccc(Br)cc12, the Potency was active: 44.7 µM. Cc1cccc(-c2nc(CS(=O)CC(=O)NC3CCCC(C)C3C)c(C)o2)c1 (stereo unspecified) was tested, and the Potency was “inactive”. With Cc1ccc(NC(=O)CSCc2c(C)noc2C)cc1C the Potency was inconclusive: 0.199 µM [inhibitor, full curve, poor fit]. In the case of Cc1cccc(C(=O)NNC(=O)C2CCCCC2)c1O, the Potency is reported as “inactive”. CN1NC(=O)CC1c1ccccc1 (stereo unspecified) was tested, and the Potency was inconclusive: 79.4 µM [inhibitor, partial curve, poor fit]. With CCC(CC)C(=O)N1CCC(OC2CCN(C)CC2)CC1 the Potency was “inactive”. In the case of CCCc1nc2ccccc2c(C(=O)OCC(=O)NCC(F)(F)F)c1CC, the Potency is reported as “inactive”. In the case of Cc1c(NC(=O)Cc2cccs2)cccc1[N+](=O)[O-], the Potency is reported as inconclusive: 44.7 µM [inhibitor, partial curve, poor fit]. For COc1cccc(-c2cc(C(=O)NCCOc3ccccc3)[nH]n2)c1, the Potency was inconclusive: 10 µM [inhibitor, partial curve, poor fit]. With Cc1ccc2[nH]c(C)c(CC(=O)NCc3ccccc3)c2c1 the Potency was inconclusive: 50.1 µM [inhibitor, single point]. For Fc1ccc(-c2nc3ccc(Cl)cn3c2Cc2ccccc2C(F)(F)F)cc1, the Potency was “inactive”. With Nc1ccc2nc(CN3CCOCC3)[nH]c2c1 the Potency was inconclusive: 35.5 µM [inhibitor, single point]. CC(CNC(=O)CCc1ccccc1)NC(=O)CCc1ccccc1 (stereo unspecified) was tested, and the Potency was inconclusive: 100 µM [inhibitor, single point]. O=c1ccc(-c2nc3cc(Cl)ccc3n2Cc2ccccc2)c[nH]1 was tested, and the Potency was inconclusive: 6.31 µM [inhibitor, single point]. With Cc1cc(C)c2cc(C(=O)N3CCc4ccccc4C3)[nH]c2c1 the Potency was inconclusive: 39.8 µM [inhibitor, partial curve, poor fit]. COC(=O)[C@H](CC(C)C)N(Cc1ccccc1)S(=O)(=O)N(Cc1ccccc1)[C@@H](CC(C)C)C(=O)OC was tested, and the Potency was “inactive”. Cc1ccc(N2C(=O)CC(Cc3ccc(Cl)cc3)C2=O)cc1 (stereo unspecified) was tested, and the Potency was inconclusive: 1.58 µM [inhibitor, partial curve, poor fit]. CN(C)S(=O)(=O)c1ccc(N2CCN(S(=O)(=O)c3ccc(F)cc3)CC2)c(Cl)c1 was tested, and the Potency was “inactive”. In the case of CSc1ccc(/C=C2\COc3ccccc3C2=O)cc1, the Potency is reported as inconclusive: 50.1 µM [inhibitor, partial curve, poor fit]. With C[C@H](C(=O)N1Cc2ccccc2CC2(CCN(CC3CCNCC3)CC2)C1)c1ccccc1 the activity change, negative = inhibition was inconclusive: -33.3% [inhibitor]. With C/C(=N\NC(N)=S)c1ccc(C2CCCCC2)cc1 the Potency was inconclusive: 56.2 µM [inhibitor, partial curve, poor fit]. CCc1nnc(NC(=O)CSc2nnc(Cc3cccn3C)n2C)s1 was tested, and the Potency was inconclusive: 31.6 µM [inhibitor, partial curve, poor fit]. In the case of O=C(Nc1cc(F)ccc1F)c1cc2nc(-c3ccco3)cc(C(F)(F)Cl)n2n1, the Potency is reported as inconclusive: 100 µM [inhibitor, single point]. For COc1ccc(-n2c3c(cc(C(=O)NNc4ccccc4C)c2=O)C(=O)CC(C)(C)C3)cc1, the Potency was inconclusive: 44.7 µM [inhibitor, partial curve, poor fit].
